From PMC5697057 come the findings set out here.

These are yes or no findings as the source states them, for the method shown. Binding seen in cells or lysates may run through a third protein. Here binding means that the protein was enriched with, or labelled near, the bait; the list need not be complete.

The assay addresses T1, cytochrome b6f subunit IV (PetD) of pea (pea (Pisum sativum)) (UniProt P06527).
T1 sequence (chain, [35S]-methionine label): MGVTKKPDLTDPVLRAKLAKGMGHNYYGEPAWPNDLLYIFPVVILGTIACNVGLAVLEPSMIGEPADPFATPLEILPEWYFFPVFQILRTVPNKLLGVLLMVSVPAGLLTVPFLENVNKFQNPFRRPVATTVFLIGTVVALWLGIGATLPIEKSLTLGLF
The assay can be described thus: cross-linking + affinity purification with mass spectrometry; [35S]PetD translated in vitro and inserted post-translationally in the presence of pea thylakoid membranes and stroma fraction; cross-linked on ice with BSOCOES or SPDP; immunoprecipitated with 2 ug antibody against ALB3 or cpSRP54; bands analysed by Q-TOF MS/MS with peptide mass fingerprints and Mascot Distiller.

In the case of ALB3 insertase, the binding entry is listed as “binds”.
